Assay results reported in the supplement of paper PMC7661543.
± gives the standard deviation of the averaged measurements. Differences between knockout arms are mostly noise.

Test system: MDA-MB-231
Test: relative cell number vs DMSO control (72 h) (% of DMSO); higher = less growth inhibition (more cells)
Method: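 QMAP-Seq: a pool of 5 breast cancer cell lines (ZR-75-1, SKBR3, HCC-38, MDA-MB-231, BT-20), each carrying 12 doxycycline-inducible Cas9 sgRNA perturbations (11 knockouts plus non-targeting sgNT), was treated with compounds for 72 h at four 10-fold doses (10 nM-10 uM or 1 nM-1 uM range). Barcodes were amplified and sequenced, and cell number was interpolated from 293T spike-in standard curves. The result is expressed as % of the median of DMSO wells. Two biological replicates.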

[1] = sgRNA knockout: sgATF3, 1000 nM
[2] = sgRNA knockout: sgATF3, 10000 nM
[3] = sgRNA knockout: sgATF4, 1000 nM
[4] = sgRNA knockout: sgATF4, 10000 nM
[5] = sgRNA knockout: sgATF6, 1000 nM
[6] = sgRNA knockout: sgATF6, 10000 nM
[7] = sgRNA knockout: sgATG7, 1000 nM
[8] = sgRNA knockout: sgATG7, 10000 nM
[9] = sgRNA knockout: sgERN1, 1000 nM
[10] = sgRNA knockout: sgERN1, 10000 nM
[11] = sgRNA knockout: sgHSF1, 1000 nM
[12] = sgRNA knockout: sgHSF1, 10000 nM
[13] = sgRNA knockout: sgHSF2, 1000 nM
[14] = sgRNA knockout: sgHSF2, 10000 nM
[15] = sgRNA knockout: sgKEAP1, 100 nM
[16] = sgRNA knockout: sgKEAP1, 1000 nM
[17] = sgRNA knockout: sgKEAP1, 10000 nM
[18] = sgRNA knockout: sgNFE2L2, 10 nM
[19] = sgRNA knockout: sgNFE2L2, 100 nM
[20] = sgRNA knockout: sgNFE2L2, 1000 nM
[21] = sgRNA knockout: sgNFE2L2, 10000 nM
[22] = sgRNA knockout: sgSLC35F2, 10 nM
[23] = sgRNA knockout: sgSLC35F2, 100 nM
[24] = sgRNA knockout: sgSLC35F2, 1000 nM
[25] = sgRNA knockout: sgSLC35F2, 10000 nM
[26] = sgRNA knockout: sgXBP1, 1000 nM
[27] = sgRNA knockout: sgXBP1, 10000 nM

In the case of CC(=O)Nc1nc(C)c(S(=O)(=O)Nc2ccc(C(O)(C(F)(F)F)C(F)(F)F)cc2)s1 [SR1001], the relative cell number (sgRNA knockout: sgATF3, 10 nM) is reported as 113 ± 26, the relative cell number (sgRNA knockout: sgATF3, 100 nM) is reported as 98.1 ± 13 and the relative cell number [1] is reported as 97 ± 6.8. It also gave a relative cell number [2] of 106 ± 16, a relative cell number (sgRNA knockout: sgATF4, 10 nM) of 152 ± 21 and a relative cell number (sgRNA knockout: sgATF4, 100 nM) of 96.2 ± 14. It also gave a relative cell number [3] of 128 ± 37, a relative cell number [4] of 127 ± 49 and a relative cell number (sgRNA knockout: sgATF6, 10 nM) of 92.9 ± 18. The relative cell number (sgRNA knockout: sgATF6, 100 nM) was 89.2 ± 12, the relative cell number [5] was 116 ± 46 and the relative cell number [6] was 107 ± 26. It also gave a relative cell number (sgRNA knockout: sgATG7, 10 nM) of 80.9 ± 2.3, a relative cell number (sgRNA knockout: sgATG7, 100 nM) of 95.6 ± 6.1 and a relative cell number [7] of 134 ± 26. It also gave a relative cell number [8] of 93.3 ± 4.9, a relative cell number (sgRNA knockout: sgERN1, 10 nM) of 95 ± 1 and a relative cell number (sgRNA knockout: sgERN1, 100 nM) of 98.17 ± 0.58. It also gave a relative cell number [9] of 109 ± 28, a relative cell number [10] of 115 ± 8.8 and a relative cell number (sgRNA knockout: sgHSF1, 10 nM) of 82.6 ± 22. For the same compound, the relative cell number (sgRNA knockout: sgHSF1, 100 nM) was 72.3 ± 11, the relative cell number [11] was 84.17 ± 0.61 and the relative cell number [12] was 97.62 ± 0.44. It also gave a relative cell number (sgRNA knockout: sgHSF2, 10 nM) of 116 ± 7.8, a relative cell number (sgRNA knockout: sgHSF2, 100 nM) of 98.6 ± 0.41 and a relative cell number [13] of 114 ± 8.2. For the same compound, the relative cell number [14] was 110 ± 20, the relative cell number (sgRNA knockout: sgKEAP1, 10 nM) was 111 ± 34 and the relative cell number [15] was 93.7 ± 24. For the same compound, the relative cell number [16] was 115 ± 1.6, the relative cell number [17] was 90.67 ± 0.67 and the relative cell number [18] was 97.9 ± 11. For the same compound, the relative cell number [19] was 89 ± 4.6, the relative cell number [20] was 136 ± 19 and the relative cell number [21] was 128 ± 29. For the same compound, the relative cell number [22] was 88.9 ± 15, the relative cell number [23] was 88.8 ± 15 and the relative cell number [24] was 105 ± 35. The relative cell number [25] was 88.3 ± 4.7, the relative cell number (sgRNA knockout: sgXBP1, 10 nM) was 97.5 ± 2.6 and the relative cell number (sgRNA knockout: sgXBP1, 100 nM) was 93.7 ± 5.1. The relative cell number [26] was 116 ± 38 and the relative cell number [27] was 118 ± 12.

With CS(=O)(=O)N1CCN(Cc2cc3nc(-c4cccc5[nH]ncc45)nc(N4CCOCC4)c3s2)CC1 [GDC0941] the relative cell number (sgRNA knockout: sgATF3, 10 nM) was 107 ± 6.5, the relative cell number (sgRNA knockout: sgATF3, 100 nM) was 91.8 ± 46 and the relative cell number [1] was 73.2 ± 19. For the same compound, the relative cell number [2] was 60 ± 14, the relative cell number (sgRNA knockout: sgATF4, 10 nM) was 139 ± 5.3 and the relative cell number (sgRNA knockout: sgATF4, 100 nM) was 88 ± 10. It also gave a relative cell number [3] of 75.2 ± 16, a relative cell number [4] of 71.2 ± 24 and a relative cell number (sgRNA knockout: sgATF6, 10 nM) of 91.1 ± 6.6. For the same compound, the relative cell number (sgRNA knockout: sgATF6, 100 nM) was 95.3 ± 1.5, the relative cell number [5] was 98.3 ± 10 and the relative cell number [6] was 49.1 ± 11. The relative cell number (sgRNA knockout: sgATG7, 10 nM) was 98.4 ± 1, the relative cell number (sgRNA knockout: sgATG7, 100 nM) was 113 ± 7.7 and the relative cell number [7] was 84.2 ± 8.8. For the same compound, the relative cell number [8] was 47.3 ± 8.3, the relative cell number (sgRNA knockout: sgERN1, 10 nM) was 83.7 ± 7.9 and the relative cell number (sgRNA knockout: sgERN1, 100 nM) was 104 ± 9.5. It also gave a relative cell number [9] of 77.8 ± 21, a relative cell number [10] of 47.5 ± 5.5 and a relative cell number (sgRNA knockout: sgHSF1, 10 nM) of 105.2 ± 0.11. For the same compound, the relative cell number (sgRNA knockout: sgHSF1, 100 nM) was 89.7 ± 26, the relative cell number [11] was 70.2 ± 11 and the relative cell number [12] was 47.1 ± 17. The relative cell number (sgRNA knockout: sgHSF2, 10 nM) was 118 ± 20, the relative cell number (sgRNA knockout: sgHSF2, 100 nM) was 99.1 ± 20 and the relative cell number [13] was 62.2 ± 2.8. The relative cell number [14] was 45 ± 12, the relative cell number (sgRNA knockout: sgKEAP1, 10 nM) was 90.7 ± 5.9 and the relative cell number [15] was 85.8 ± 38. The relative cell number [16] was 72.9 ± 21, the relative cell number [17] was 46.1 ± 13 and the relative cell number [18] was 93.4 ± 22. The relative cell number [19] was 86 ± 3.7, the relative cell number [20] was 94.9 ± 14 and the relative cell number [21] was 44.6 ± 17. For the same compound, the relative cell number [22] was 81.6 ± 5.3, the relative cell number [23] was 83.5 ± 11 and the relative cell number [24] was 91 ± 33. The relative cell number [25] was 48 ± 16, the relative cell number (sgRNA knockout: sgXBP1, 10 nM) was 92 ± 23 and the relative cell number (sgRNA knockout: sgXBP1, 100 nM) was 88.5 ± 22. For the same compound, the relative cell number [26] was 75.3 ± 9 and the relative cell number [27] was 41.5 ± 4.8.

In the case of OCc1ccc(-c2ccc(-c3ccc(CO)s3)o2)s1, the relative cell number (sgRNA knockout: sgATF3, 10 nM) is reported as 143 ± 42, the relative cell number (sgRNA knockout: sgATF3, 100 nM) is reported as 116 ± 11 and the relative cell number [1] is reported as 80.3 ± 24. The relative cell number [2] was 35.9 ± 13, the relative cell number (sgRNA knockout: sgATF4, 10 nM) was 207 ± 99 and the relative cell number (sgRNA knockout: sgATF4, 100 nM) was 110 ± 30. The relative cell number [3] was 131 ± 4.6, the relative cell number [4] was 55 ± 17 and the relative cell number (sgRNA knockout: sgATF6, 10 nM) was 112 ± 50. It also gave a relative cell number (sgRNA knockout: sgATF6, 100 nM) of 90.5 ± 19, a relative cell number [5] of 64.3 ± 2.4 and a relative cell number [6] of 39 ± 16. It also gave a relative cell number (sgRNA knockout: sgATG7, 10 nM) of 122 ± 9.1, a relative cell number (sgRNA knockout: sgATG7, 100 nM) of 78.6 ± 1.9 and a relative cell number [7] of 106 ± 20. It also gave a relative cell number [8] of 38.7 ± 8.4, a relative cell number (sgRNA knockout: sgERN1, 10 nM) of 122 ± 18 and a relative cell number (sgRNA knockout: sgERN1, 100 nM) of 79.8 ± 1.3. It also gave a relative cell number [9] of 90 ± 8.2, a relative cell number [10] of 37.8 ± 8 and a relative cell number (sgRNA knockout: sgHSF1, 10 nM) of 105 ± 16. It also gave a relative cell number (sgRNA knockout: sgHSF1, 100 nM) of 95 ± 6.3, a relative cell number [11] of 85.3 ± 25 and a relative cell number [12] of 38.9 ± 8.7. The relative cell number (sgRNA knockout: sgHSF2, 10 nM) was 104 ± 32, the relative cell number (sgRNA knockout: sgHSF2, 100 nM) was 97.6 ± 20 and the relative cell number [13] was 83.1 ± 8.1. For the same compound, the relative cell number [14] was 41.9 ± 4.5, the relative cell number (sgRNA knockout: sgKEAP1, 10 nM) was 124 ± 31 and the relative cell number [15] was 130 ± 9.8. The relative cell number [16] was 90.1 ± 13, the relative cell number [17] was 37.5 ± 16 and the relative cell number [18] was 110 ± 37. The relative cell number [19] was 104 ± 12, the relative cell number [20] was 90.7 ± 5.2 and the relative cell number [21] was 47.9 ± 28. It also gave a relative cell number [22] of 113 ± 36, a relative cell number [23] of 84.9 ± 28 and a relative cell number [24] of 86.6 ± 6.7. It also gave a relative cell number [25] of 40.2 ± 7.6, a relative cell number (sgRNA knockout: sgXBP1, 10 nM) of 118 ± 2.5 and a relative cell number (sgRNA knockout: sgXBP1, 100 nM) of 96.6 ± 22. The relative cell number [26] was 95.7 ± 6 and the relative cell number [27] was 39.1 ± 13.
